Measurements: US7384788B2, “Regulator/promoter for tunable gene expression and metabolite sensing” (priority 2003, dated 2008)
Some entries share one result that the patent states for a list of compounds. At least one compound was matched to its structure with a doubt left.

tested on: yhcRQP-luxCDABE gene fusion; type: cell-based; conditions: E. coli strains containing pDEW655

| Compound | increase in light production (compounds that did not induce expression) |
| --- | --- |
| gramicidin S | less than 3 -fold |
| CCC(=O)O [propionate] | less than 3 -fold |
| COC(=O)c1ccc(O)cc1 [methyl paraben] | less than 3 -fold |
| CCCCCCCCCCCCOS(=O)(=O)[O-].[Na+] [SDS] | less than 3 -fold |
| C=Cc1ccc(O)cc1 [p-hydroxystryrene] | less than 3 -fold |
| N[C@@H](Cc1ccc(O)cc1)C(=O)O [L-tyrosine] | less than 3 -fold |
| polymyxin sulfate | less than 3 -fold |
| C=C(C)[C@H]1CC=C(C)CC1 [limonene] | less than 3 -fold |
| benzalkonium chloride | less than 3 -fold |
| O=C(O)c1ccccc1-c1ccccc1 [2-biphenylcarboxylate] | less than 3 -fold |
